# Measured values reported in PubChem BioAssay AID588590 (National Center for Advancing Translational Sciences (NCATS), 2011).
# Amino acid sequences for entries named in this document (tags omitted). A change or cut given only in a name is not applied to a line headed by its entry.
# UniProt Q9UNA4: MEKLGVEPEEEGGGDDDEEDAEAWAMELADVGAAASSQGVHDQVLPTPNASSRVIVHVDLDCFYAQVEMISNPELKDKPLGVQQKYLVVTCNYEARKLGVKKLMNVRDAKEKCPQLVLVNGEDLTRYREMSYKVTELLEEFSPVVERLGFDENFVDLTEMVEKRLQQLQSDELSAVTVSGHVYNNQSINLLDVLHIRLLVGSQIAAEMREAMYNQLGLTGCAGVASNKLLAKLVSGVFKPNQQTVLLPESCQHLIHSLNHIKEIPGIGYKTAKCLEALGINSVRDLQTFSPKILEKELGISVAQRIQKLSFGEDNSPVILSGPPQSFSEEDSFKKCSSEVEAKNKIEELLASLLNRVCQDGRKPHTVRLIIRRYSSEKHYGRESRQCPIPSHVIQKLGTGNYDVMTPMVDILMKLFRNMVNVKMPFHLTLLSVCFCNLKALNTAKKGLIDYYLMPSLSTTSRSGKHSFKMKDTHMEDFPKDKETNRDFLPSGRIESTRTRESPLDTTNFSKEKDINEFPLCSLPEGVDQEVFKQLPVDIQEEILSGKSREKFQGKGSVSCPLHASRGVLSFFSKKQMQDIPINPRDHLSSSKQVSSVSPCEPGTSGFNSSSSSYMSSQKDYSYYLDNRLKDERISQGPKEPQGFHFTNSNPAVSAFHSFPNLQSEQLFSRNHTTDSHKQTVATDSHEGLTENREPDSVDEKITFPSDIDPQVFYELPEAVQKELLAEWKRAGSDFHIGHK
# Out of some 390,000 compounds screened, about 4,000 (1%) were called active. Inconclusive results, whose numbers are uncertain, are shown with a selection of clear calls. Calls come from the whole dose curve; as a rule, active = well fitted inhibition curve with a large enough effect; inconclusive = small, poorly fitted or top-dose-only effect, or another doubt; inactive = no such curve, though single readings can be large or run the other way. Potencies beside an inconclusive call are fits to weak or partial responses and may not hold up.
# Biological target: DNA polymerase iota (Homo sapiens) (UniProt Q9UNA4)
# Test: qHTS for Inhibitors of Polymerase Iota
# Settings: Pol iota fluorescent replication assay, 10 min; series mostly up to 115 µM; activity, negative = inhibition: at the top concentration
# How it was run: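 Pol iota at 10 nM preincubated 15 min with compounds at room temperature; reaction started with fluorescent substrate, 50 nM final. Fluorescence read kinetically at 0 and 10 min; buffer-only wells as negative control.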
# Potency is the fitted concentration of half-maximal effect.
SMILES,Potency,"activity, negative = inhibition"
O=C(CCl)NC(=O)NC12CC3CC(CC(C3)C1)C2,"inconclusive: 112 µM [inhibitor, partial curve, poor fit]",
Cc1c(NC(=O)c2ccc(N3CCCC3)c([N+](=O)[O-])c2)cccc1-c1nc2ccccc2s1,active: 79.4 µM,
COc1ccc(NC(=O)COC(=O)c2ccc(N3CCCC3=O)cc2)cc1,"inconclusive: 89.1 µM [inhibitor, partial curve, poor fit]",
Cc1ccc(CS(=O)(=O)CCC(=O)NCCN(C)Cc2ccccc2)cc1,,inactive: 33.8%
O=C(c1ccco1)N1CCN(C(=O)C2CC(=O)N(c3ccc(Cl)cc3)C2)CC1 (stereo not given),"inconclusive: 70.8 µM [inhibitor, partial curve, poor fit]",
Cc1cccc(NCc2nc3ccccc3n2CCOc2ccccc2C)c1,"inconclusive: 35.5 µM [inhibitor, partial curve]",
c1ccc(-c2nccc(-c3ccc(-n4cnc5ccccc54)cc3)n2)cc1,"inconclusive: 11.2 µM [inhibitor, single point]",
O=S(=O)(c1ccc(N2CCC(c3ccc(Cl)cc3)=N2)cc1)N(CCO)CCO,"inconclusive: 20 µM [inhibitor, single point]",
O=S(=O)(c1ccc2[nH]c3c(c2c1)CCCC3)N1CCCCC1,"inconclusive: 20 µM [inhibitor, partial curve, poor fit]",
COC(=O)c1cccc2c1-c1ccccc1/C2=N\NC(N)=O,"inconclusive: 15.8 µM [inhibitor, partial curve, poor fit]",
CCn1nc(C)cc1C(=O)Sc1ccc(Cl)cc1Cl,"inconclusive: 17.8 µM [inhibitor, partial curve, poor fit]",
CCC12CN3CC(C)(CN(C1)C3c1c[nH]c3ccccc13)C2=O (stereo not given),,inactive: 23.4%
O=C(c1ccco1)N1CCN(c2ncnc3c2[nH]c2ccc(Br)cc23)CC1,"inconclusive: 15.8 µM [inhibitor, partial curve, poor fit]",
O=C(/C=C/c1ccc(Br)o1)NCc1ccccc1,"inconclusive: 11.2 µM [inhibitor, full curve, poor fit]",
Nc1nc(-c2ccc(-n3nncc3-c3ccco3)cc2)cs1,"inconclusive: 28.2 µM [inhibitor, full curve]",
CCOC(=O)Cc1csc(NC(=O)Cn2c(=O)oc3ccccc32)n1,"inconclusive: 100 µM [inhibitor, single point]",
Nc1nc(Nc2ccc(Cl)cc2)nc(NCc2ccco2)c1[N+](=O)[O-],"inconclusive: 25.1 µM [inhibitor, partial curve, poor fit]",
O=C(CSc1nnnn1C1CCCC1)N1CCOCC1,"inconclusive: 39.8 µM [inhibitor, single point]",
CC(C)c1nnc(NC(=O)CCS(=O)(=O)c2nc(-c3cccs3)cc(C(F)(F)F)n2)s1,"inconclusive: 11.2 µM [inhibitor, partial curve, poor fit]",
Cc1ccc(O)c(CP(=O)(c2ccccc2)c2ccccc2)c1,,inactive: 27.2%

SMILES,Potency,"activity, negative = inhibition"
CSc1sccc1/C=C(/C#N)C(=O)c1ccco1,"inconclusive: 25.1 µM [inhibitor, partial curve, poor fit]",
COc1ccc(-c2nnc3ccc(SCC(=O)N4CCCCCC4)nn23)cc1OC,"inconclusive: 0.316 µM [inhibitor, full curve, poor fit]",
CN=CC1=C(O)c2ccccc2C1=O,,inactive: -12.5%
Nc1ccc(N2CCCCC2)c(S(=O)(=O)Nc2ccccc2Cl)c1,"inconclusive: 17.8 µM [inhibitor, full curve, poor fit]",
COc1ccc(-c2onc(C)c2C)cc1S(=O)(=O)NCc1ccco1,,inactive: 2.28%
COc1cccc(C(=O)Nc2cccc(OCc3cc(=O)n4cc(C)ccc4n3)c2)c1,"inconclusive: 63.1 µM [inhibitor, partial curve, poor fit]",
O=C(CN1C(=O)/C(=C/c2ccc(Cl)cc2)SC1=S)NC1C=CS(=O)(=O)C1 (stereo not given),"inconclusive: 10 µM [inhibitor, full curve, poor fit]",
CCOC(=O)c1ccc2ncc(C(=O)OCC)c(NCCN(C)C)c2c1,,inactive: 2.63%
CCc1cccc(NC(=O)CN2C(=O)CCc3cc(S(=O)(=O)N4CCOCC4)ccc32)c1,,inactive: 24%
COc1ccc(-c2csc(NC(C)c3nc4cc(Cl)c(N5CCCCC5)cc4n3CCOCCO)n2)cc1 (stereo not given),"inconclusive: 8.91 µM [inhibitor, full curve, poor fit]",
CCSc1nc2n(n1)C(c1ccc(CC)cc1)C(C(=O)Nc1ccccc1OC)=C(C)N2 (stereo not given),,inactive: 2.4%
CC(=O)Nc1ccc(NC(=O)C(C)OC(=O)CNS(=O)(=O)c2ccc(Br)cc2Cl)cc1 (stereo not given),"inconclusive: 50.1 µM [inhibitor, partial curve, poor fit]",
O=C(NC1CCCCC1)C(c1ccncc1)N(Cc1ccc2c(c1)OCO2)C(=O)C(F)(F)F (stereo not given),active: 35.5 µM,
CC[C@@H](C)[C@H](N)C(=O)NC[C@H]1O[C@@H](n2cnc3c(N)ncnc32)[C@H](O)[C@@H]1O,"inconclusive: 4.47 µM [inhibitor, partial curve, poor fit]",
Cc1sc2nc(CN(Cc3cccs3)C(=O)NC3CCCCC3)[nH]c(=O)c2c1C,"inconclusive: 50.1 µM [inhibitor, partial curve, poor fit]",
Cc1oc(-c2ccc(C(=O)NCc3ccc(N(C)C)cc3)cc2)nc1COc1ccccc1,,inactive: -14%
Cc1cc(C(=O)NCCN2C(=O)S/C(=C\c3cccs3)C2=O)ccc1[N+](=O)[O-],"inconclusive: 56.2 µM [inhibitor, partial curve, poor fit]",
Cc1cc2c(=O)c(C(=O)c3ccncc3)cn(CC(=O)Nc3cccc(C)c3C)c2cc1C,"inconclusive: 79.4 µM [inhibitor, partial curve]",
CCCCCCNC(=O)CCc1nc2cccnc2n1Cc1ccc(OC)cc1,"inconclusive: 56.2 µM [inhibitor, partial curve, poor fit]",
COc1ccc(NC(c2ccc(F)cc2)c2nnc(-c3ccccc3Cl)o2)cc1Cl (stereo not given),,inactive: 39.5%
